# Experimental data reported in the supplement of paper PMC4604168 (melanoma cell lines).
# This is one part of the list. Single values are uncertain, as repeats are few or missing.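 The apoptosis fraction was the count of cleaved-PARP antibody-stained nuclei relative to all DNA-stained nuclei, imaged in 1,536-well plates. Screening doses were set so most cells survived, and baseline and induced cleaved-PARP levels vary greatly across cell lines.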
# Tested on: A2058
# Assay: cleaved PARP positive nuclei fraction relative to DMSO control; melanoma cells; higher = more apoptosis
# Conditions: library dose: low library concentration; 72 h
row,SMILES,cleaved PARP positive nuclei fraction [%]
1,"O=C(/C=C/c1cccnc1)NCCCCC1CCN(C(=O)c2ccccc2)CC1 + C[C@]12O[C@H](C[C@]1(O)CO)n1c3ccccc3c3c4c(c5c6ccccc6n2c5c31)CNC4=O [Lestaurtinib] (first compound 0.01 µM, partner dose 0.004 µM)",57.3
2,"N.N.[Cl][Pt][Cl] [cisplatin] + OCc1c[nH]c2ccccc12 [Indole-3-carbinol] (first compound 1.6 µM, partner dose 0.8 µM)",104
3,"Cn1cc(C2=C(c3cn(C4CCN(Cc5ccccn5)CC4)c4ccccc34)C(=O)NC2=O)c2ccccc21 [Enzastaurin] + CO[C@H]1C[C@@H]2CC[C@@H](C)[C@@](O)(O2)C(=O)C(=O)N2CCCC[C@H]2C(=O)O[C@H]([C@H](C)C[C@@H]2CC[C@@H](OCCO)[C@H](OC)C2)CC(=O)[C@H](C)/C=C(\C)[C@@H](O)[C@@H](OC)C(=O)[C@H](C)C[C@H](C)/C=C/C=C/C=C/1C [everolimus] (first compound 0.8 µM, partner dose 0.02 µM)",88.1
4,"O=C(/C=C/c1cccnc1)NCCCCC1CCN(C(=O)c2ccccc2)CC1 + C[As](C)SC[C@H](NC(=O)CC[C@H](N)C(=O)O)C(=O)NCC(=O)O [Darinaparsin] (first compound 0.01 µM, partner dose 0.4 µM)",82.3
5,"OCc1c[nH]c2ccccc12 [Indole-3-carbinol] + C[As](C)SC[C@H](NC(=O)CC[C@H](N)C(=O)O)C(=O)NCC(=O)O [Darinaparsin] (first compound 0.8 µM, partner dose 0.4 µM)",184
6,"Nc1ccn([C@@H]2O[C@H](CO)[C@@H](O)C2(F)F)c(=O)n1 [gemcitabine] + C[As](C)SC[C@H](NC(=O)CC[C@H](N)C(=O)O)C(=O)NCC(=O)O [Darinaparsin] (first compound 0.0004 µM, partner dose 0.4 µM)",112
7,"Cn1c(=O)n(-c2ccc(C(C)(C)C#N)cc2)c2c3cc(-c4cnc5ccccc5c4)ccc3ncc21 + C[As](C)SC[C@H](NC(=O)CC[C@H](N)C(=O)O)C(=O)NCC(=O)O [Darinaparsin] (first compound 0.004 µM, partner dose 0.4 µM)",85.4
8,"N.N.[Cl][Pt][Cl] [cisplatin] + Cc1nc(Nc2ncc(C(=O)Nc3c(C)cccc3Cl)s2)cc(N2CCN(CCO)CC2)n1 [dasatanib] (first compound 1.6 µM, partner dose 0.004 µM)",123
9,"N.N.[Cl][Pt][Cl] [cisplatin] + C[C@@H](Oc1cc(-c2cnn(C3CCNCC3)c2)cnc1N)c1c(Cl)ccc(F)c1Cl [Crizotinib] (first compound 1.6 µM, partner dose 0.2 µM)",91.3
10,"Cn1cc(C2=C(c3cn(C4CCN(Cc5ccccn5)CC4)c4ccccc34)C(=O)NC2=O)c2ccccc21 [Enzastaurin] + O=C(O)[C@@H]1[O][Sb](=[O])([O][Sb]2(=[O])[O][C@H]([C@H](O)CO)[C@H](O)[C@H](C(=O)O)[O]2)[O][C@H]([C@H](O)CO)[C@@H]1O [stibogluconate] (first compound 0.8 µM, partner dose 2 µM)",106
11,"C[C@]12O[C@H](C[C@]1(O)CO)n1c3ccccc3c3c4c(c5c6ccccc6n2c5c31)CNC4=O [Lestaurtinib] + Nc1ccn([C@@H]2O[C@H](CO)[C@@H](O)C2(F)F)c(=O)n1 [gemcitabine] (first compound 0.004 µM, partner dose 0.0004 µM)",27.6
12,"N.N.[Cl][Pt][Cl] [cisplatin] + CN1CCN(c2ccc3nc(-c4c(N)c5c(F)cccc5[nH]c4=O)[nH]c3c2)CC1 [Dovitinib] (first compound 1.6 µM, partner dose 0.1 µM)",61.9
13,"NC1(c2ccc(-c3nc4ccn5c(=O)[nH]nc5c4cc3-c3ccccc3)cc2)CCC1 + C[As](C)SC[C@H](NC(=O)CC[C@H](N)C(=O)O)C(=O)NCC(=O)O [Darinaparsin] (first compound 0.4 µM, partner dose 0.4 µM)",117

# Tested on: A375
# Assay: as above
# Conditions: library dose: low library concentration; 72 h
row,SMILES,cleaved PARP positive nuclei fraction [%]
1,"O=c1[nH]nc(Sc2ncc([N+](=O)[O-])s2)n1-c1ccc2c(c1)OCCO2 + N.N.[Cl][Pt][Cl] [cisplatin] (first compound 0.2 µM, partner dose 1.6 µM)",101
2,"N.N.[Cl][Pt][Cl] [cisplatin] + C=C(c1ccc(C(=O)O)cc1)c1cc2c(cc1C)C(C)(C)CCC2(C)C [Bexarotene] (first compound 1.6 µM, partner dose 2 µM)",219
3,"C=C(c1ccc(C(=O)O)cc1)c1cc2c(cc1C)C(C)(C)CCC2(C)C [Bexarotene] + C[As](C)SC[C@H](NC(=O)CC[C@H](N)C(=O)O)C(=O)NCC(=O)O [Darinaparsin] (first compound 2 µM, partner dose 0.4 µM)",18.2
4,"Cc1cc(Nc2cc(N3CCN(C)CC3)nc(Sc3ccc(NC(=O)C4CC4)cc3)n2)n[nH]1 [Tozasertib] + Cn1cc(C2=C(c3cn(C4CCN(Cc5ccccn5)CC4)c4ccccc34)C(=O)NC2=O)c2ccccc21 [Enzastaurin] (first compound 0.006 µM, partner dose 0.8 µM)",116
5,"CCN(CC)CCNC(=O)c1c(C)[nH]c(/C=C2\C(=O)Nc3ccc(F)cc32)c1C [sunitinib] + N.N.[Cl][Pt][Cl] [cisplatin] (first compound 0.4 µM, partner dose 1.6 µM)",206
6,"Cn1cc(C2=C(c3cn(C4CCN(Cc5ccccn5)CC4)c4ccccc34)C(=O)NC2=O)c2ccccc21 [Enzastaurin] + OCc1c[nH]c2ccccc12 [Indole-3-carbinol] (first compound 0.8 µM, partner dose 0.8 µM)",165
7,"C[As](C)SC[C@H](NC(=O)CC[C@H](N)C(=O)O)C(=O)NCC(=O)O [Darinaparsin] + Nc1cccc2c1CN(C1CCC(=O)NC1=O)C2=O [lenalidomide] (first compound 0.4 µM, partner dose 1 µM)",24.2
8,"C[C@]12O[C@H](C[C@]1(O)CO)n1c3ccccc3c3c4c(c5c6ccccc6n2c5c31)CNC4=O [Lestaurtinib] + Clc1ccc(Nc2nnc(Cc3ccncc3)c3ccccc23)cc1 [vatalanib] (first compound 0.004 µM, partner dose 2 µM)",129
9,"Cn1cc(C2=C(c3cn(C4CCN(Cc5ccccn5)CC4)c4ccccc34)C(=O)NC2=O)c2ccccc21 [Enzastaurin] + O=C(O)c1ccc2c(c1)nc(Nc1cccc(Cl)c1)c1ccncc12 [CX4945] (first compound 0.8 µM, partner dose 0.4 µM)",119
10,"C[C@]12O[C@H](C[C@]1(O)CO)n1c3ccccc3c3c4c(c5c6ccccc6n2c5c31)CNC4=O [Lestaurtinib] + Nc1ncn([C@H]2C[C@H](O)[C@@H](CO)O2)c(=O)n1 [decitabine] (first compound 0.004 µM, partner dose 0.1 µM)",70.6
11,"Cn1cc(C2=C(c3cn(C4CCN(Cc5ccccn5)CC4)c4ccccc34)C(=O)NC2=O)c2ccccc21 [Enzastaurin] + C[C@]1(c2nc3c(C(N)=O)cccc3[nH]2)CCCN1 [Veliparib] (first compound 0.8 µM, partner dose 1.4 µM)",177
12,"Cc1ccc(Nc2nccc(N(C)c3ccc4c(C)n(C)nc4c3)n2)cc1S(N)(=O)=O [Pazopanib] + N.N.[Cl][Pt][Cl] [cisplatin] (first compound 0.4 µM, partner dose 1.6 µM)",62
13,"C[As](C)SC[C@H](NC(=O)CC[C@H](N)C(=O)O)C(=O)NCC(=O)O [Darinaparsin] + Cn1c(Nc2ccc(C(F)(F)F)cc2)nc2cc(Oc3ccnc(-c4ncc(C(F)(F)F)[nH]4)c3)ccc21 [CHIR265] (first compound 0.4 µM, partner dose 0.08 µM)",107
14,"CC[C@]1(O)C[C@H]2CN(CCc3c([nH]c4ccccc34)[C@@](C(=O)OC)(c3cc4c(cc3OC)N(C=O)[C@H]3[C@@](O)(C(=O)OC)[C@H](OC(C)=O)[C@]5(CC)C=CCN6CC[C@]43[C@@H]65)C2)C1 [vincristine] + N.N.[Cl][Pt][Cl] [cisplatin] (first compound 0.0001 µM, partner dose 1.6 µM)",42.2
15,"O=C(/C=C/c1cccnc1)NCCCCC1CCN(C(=O)c2ccccc2)CC1 + N.N.[Cl][Pt][Cl] [cisplatin] (first compound 0.01 µM, partner dose 1.6 µM)",191
16,"Nc1ncn([C@H]2C[C@H](O)[C@@H](CO)O2)c(=O)n1 [decitabine] + C[As](C)SC[C@H](NC(=O)CC[C@H](N)C(=O)O)C(=O)NCC(=O)O [Darinaparsin] (first compound 0.1 µM, partner dose 0.4 µM)",31.3
17,"C#Cc1cccc(Nc2ncnc3cc(OCCOC)c(OCCOC)cc23)c1 [erlotinib] + C[As](C)SC[C@H](NC(=O)CC[C@H](N)C(=O)O)C(=O)NCC(=O)O [Darinaparsin] (first compound 0.8 µM, partner dose 0.4 µM)",180
18,"Cn1cc(C2=C(c3cn(C4CCN(Cc5ccccn5)CC4)c4ccccc34)C(=O)NC2=O)c2ccccc21 [Enzastaurin] + CC(=O)c1c(C)c2cnc(Nc3ccc(N4CCNCC4)cn3)nc2n(C2CCCC2)c1=O [palbociclib] (first compound 0.8 µM, partner dose 0.04 µM)",151

# 2 records drawn at random from those above, as already listed:
row,SMILES,cleaved PARP positive nuclei fraction [%]
16,"Nc1ncn([C@H]2C[C@H](O)[C@@H](CO)O2)c(=O)n1 [decitabine] + C[As](C)SC[C@H](NC(=O)CC[C@H](N)C(=O)O)C(=O)NCC(=O)O [Darinaparsin] (first compound 0.1 µM, partner dose 0.4 µM)",31.3
12,"Cc1ccc(Nc2nccc(N(C)c3ccc4c(C)n(C)nc4c3)n2)cc1S(N)(=O)=O [Pazopanib] + N.N.[Cl][Pt][Cl] [cisplatin] (first compound 0.4 µM, partner dose 1.6 µM)",62
